The target of this experiment is Flag-Caspase-1 (human Caspase-1) (human) (UniProt P29466). Kind of experiment: co-IP.

The chains behind the UniProt entries cited, without tags or fusion partners.
UniProt P29466: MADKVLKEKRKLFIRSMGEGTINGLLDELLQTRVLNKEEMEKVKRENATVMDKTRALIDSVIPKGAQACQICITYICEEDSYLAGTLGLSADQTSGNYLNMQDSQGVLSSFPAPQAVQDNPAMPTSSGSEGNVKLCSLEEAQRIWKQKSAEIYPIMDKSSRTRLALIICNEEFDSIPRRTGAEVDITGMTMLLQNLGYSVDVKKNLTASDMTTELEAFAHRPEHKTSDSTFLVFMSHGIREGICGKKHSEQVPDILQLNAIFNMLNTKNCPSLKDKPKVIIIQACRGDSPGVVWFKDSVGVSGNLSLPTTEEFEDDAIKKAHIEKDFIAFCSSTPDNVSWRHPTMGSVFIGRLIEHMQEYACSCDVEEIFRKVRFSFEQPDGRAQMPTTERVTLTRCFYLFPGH
UniProt Q7Z434: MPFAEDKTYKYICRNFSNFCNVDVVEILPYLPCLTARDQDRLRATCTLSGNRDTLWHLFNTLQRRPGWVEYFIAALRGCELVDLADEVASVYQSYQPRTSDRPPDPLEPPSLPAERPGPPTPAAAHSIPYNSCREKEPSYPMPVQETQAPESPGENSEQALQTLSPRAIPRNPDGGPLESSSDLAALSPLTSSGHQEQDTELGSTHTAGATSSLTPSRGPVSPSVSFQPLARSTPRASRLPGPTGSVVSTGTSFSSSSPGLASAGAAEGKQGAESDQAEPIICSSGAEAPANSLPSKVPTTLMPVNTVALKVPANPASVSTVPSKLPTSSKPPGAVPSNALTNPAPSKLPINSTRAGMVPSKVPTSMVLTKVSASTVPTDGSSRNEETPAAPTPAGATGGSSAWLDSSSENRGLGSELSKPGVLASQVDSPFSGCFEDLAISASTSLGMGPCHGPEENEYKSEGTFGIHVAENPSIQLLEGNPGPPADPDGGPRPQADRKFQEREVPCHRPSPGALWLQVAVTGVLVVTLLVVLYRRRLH

1 substance from article PMC12456220 can be followed below.

No constants are given. Whether binding was seen depends on the method and setting. In cells and extracts the contact can be indirect. Some results given as binding are weak or reduced against the parent protein; the word gives no strength.

As to “H-Myc-MAVS (human MAVS) (from UniProt Q7Z434 1-540)”, the binding entry was “binds”.
